Some results were stated once for a whole list of compounds, not compound by compound.
Target: T1, human JAK1 kinase domain (Homo sapiens, UniProt P23458)
T1 construct: made in house; host or cells: SF9 insect cells (baculovirus)
Assay: JAK1 inhibition assay (Example B), Caliper LabChip peptide phosphorylation
Format: biochemical
Settings: 1.5 nM JAK1, 25 μM ATP, Morrison tight binding model; read-out: Ki in a JAK1 kinase activity assay (Example B)

By UniProt entry, the sequences of proteins in these tests, tags left out. Residues count along the entry.
UniProt P23458, 852-1154: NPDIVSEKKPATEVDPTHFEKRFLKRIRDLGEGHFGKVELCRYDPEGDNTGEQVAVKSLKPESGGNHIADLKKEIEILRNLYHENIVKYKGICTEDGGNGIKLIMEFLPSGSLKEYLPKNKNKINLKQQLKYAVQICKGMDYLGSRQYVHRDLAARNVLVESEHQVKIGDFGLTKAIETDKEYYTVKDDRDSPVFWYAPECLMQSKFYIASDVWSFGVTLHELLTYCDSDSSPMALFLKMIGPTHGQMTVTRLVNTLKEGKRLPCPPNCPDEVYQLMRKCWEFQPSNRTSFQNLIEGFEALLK

SMILES	Ki [nM]
Cc1nc2cnc3[nH]ccc3c2n1[C@@H]1CC[C@@H](NCC(F)(F)F)C1 [Example 720, [(1R,3R)-3-(2-Methyl-6H-1,3,5,6-tetraaza-as-indacen-1-yl)-cyclopentyl]-(2,2,2-trifluoro-ethyl)-amine]	< 500
Cc1nc2cnc3[nH]ccc3c2n1[C@H]1CC[C@@H](NCCC#N)C1 [Example 723, 3-[(1R,3S)-3-(2-Methyl-6H-1,3,5,6-tetraaza-as-indacen-1-yl)-cyclopentylamino]-propionitrile]	< 500
Cc1nc2cnc3[nH]ccc3c2n1[C@@H]1CC[C@@H](NCCC#N)C1 [Example 724, 3-[(1R,3R)-3-(2-Methyl-6H-1,3,5,6-tetraaza-as-indacen-1-yl)-cyclopentylamino]-propionitrile]	< 500
Cc1nc2cnc3[nH]ccc3c2n1[C@@H]1CC[C@@H](NC(C)CC#N)C1 (stereo partly drawn) [Example 725, 3-[(1R,3R)-3-(2-Methyl-6H-1,3,5,6-tetraaza-as-indacen-1-yl)-cyclopentylamino]-butyronitrile]	< 500
CC(C)(C)OC(=O)N[C@@H]1CC[C@@H](n2nnc3cnc4[nH]ccc4c32)C1 [Example 727, [(1R,3R)-3-(6H-1,2,3,5,6-Pentaaza-as-indacen-1-yl)-cyclopentyl]-carbamic acid tert-butyl ester]	< 500
Cc1nc2cnc3[nH]ccc3c2n1[C@H]1CC[C@@H](NC(=O)CC(F)(F)F)C1 [Example 731, 3,3,3-Trifluoro-N-[(1R,3S)-3-(2-methyl-6H-1,3,5,6-tetraaza-as-indacen-1-yl)-cyclopentyl]-propionamide]	< 500
COC(=O)N[C@@H]1CC[C@@H](n2c(C)nc3cnc4[nH]ccc4c32)C1 [Example 735, [(1R,3R)-3-(2-Methyl-6H-1,3,5,6-tetraaza-as-indacen-1-yl)-cyclopentyl]-carbamic acid methyl ester]	< 500
Cc1nc2cnc3[nH]ccc3c2n1C1(C)CCN(S(=O)(=O)c2cccnc2)CC1 [Example 740, 2-Methyl-1-[4-methyl-1-(pyridine-3-sulfonyl)-piperidinyl-4-yl]-1,6-dihydro-1,3,5,6-tetraaza-as-indacene]	< 500
Cc1nc2cnc3[nH]ccc3c2n1C1(C)CCN(C(=O)CC#N)CC1 [Example 741, 3-[4-Methyl-4-(2-methyl-6H-1,3,5,6-tetraaza-as-indacen-1-yl)-piperidin-1-yl]-3-oxo-propionitrile]	< 500
O=C(NC1CCC(n2cnc3cnc4[nH]ccc4c32)CC1)OCc1cccnc1 (stereo not drawn) [Example 744, [4-(6H-1,3,5,6-tetraaza-as-indacen-1-yl)-cyclohexyl]-carbamic acid pyridin-3-ylmethyl ester]	< 500
CN(CC(F)(F)F)C(=O)NC1CCC(n2cnc3cnc4[nH]ccc4c32)CC1 (stereo not drawn) [Example 745, 1-methyl-3-[4-(6H-1,3,5,6-tetraaza-as-indacen-1-yl)-cyclohexyl]-1-(2,2,2-trifluoro-ethyl)-urea]	< 500
O=C(NC1CCC(n2cnc3cnc4[nH]ccc4c32)CC1)N1CCC1 (stereo not drawn) [Example 746, azetidine-1-carboxylic acid [4-(6H-1,3,5,6-tetraaza-as-indacen-1-yl)-cyclohexyl]-amide]	< 500
CN(CC(F)F)C(=O)NC1CCC(n2cnc3cnc4[nH]ccc4c32)CC1 (stereo not drawn) [Example 747, 1-(2,2-difluoro-ethyl)-1-methyl-3-[4-(6H-1,3,5,6-tetraaza-as-indacen-1-yl)-cyclohexyl]-urea]	< 500
Cc1nc2cnc3[nH]ccc3c2n1C1CCC(NC(=O)N2CC(F)(F)C2)CC1 (stereo not drawn) [Example 748, 3,3-difluoro-azetidine-1-carboxylic acid [4-(2-methyl-6H-1,3,5,6-tetraaza-as-indacen-1-yl)-cyclohexyl]-amide]	< 500
Cc1nc2cnc3[nH]ccc3c2n1C1CCC(NC(=O)N(C)CC(F)(F)F)CC1 (stereo not drawn) [Example 749, 1-methyl-3-[4-(2-methyl-6H 1,3,5,6-tetraaza-as-indacen-1-yl)-cyclohexyl]-1-(2,2,2-trifluoro-ethyl)-urea]	< 500
Cc1nc2cnc3[nH]ccc3c2n1C1CCC(NC(=O)N(C)CC(F)F)CC1 (stereo not drawn) [Example 750, 1-(2,2-difluoro-ethyl)-1-methyl-3-[4-(2-methyl-6H-1,3,5,6-tetraaza-as-indacen-1-yl)-cyclohexyl]-urea]	< 500
CNC(=O)OC1CCC(n2c(C)nc3cnc4[nH]ccc4c32)CC1 (stereo not drawn) [Example 751, methyl-carbamic acid 4-(2-methyl-6H-1,3,5,6-tetraaza-as-indacen-1-yl)-cyclohexyl ester]	< 500
CC1(n2cnc3cnc4[nH]ccc4c32)CCN(S(=O)(=O)c2cccnc2)CC1 [Example 753, 1-[4-Methyl-1-(pyridine-3-sulfonyl)-piperidin-4-yl]-1,6-dihydro-1,3,5,6-tetraaza-as-indacene]	< 500
CC1(n2cnc3cnc4[nH]ccc4c32)CCN(Cc2cccc(C#N)c2)CC1 [Example 754, 3-[4-Methyl-4-(6H-1,3,5,6-tetraaza-as-indacen-1-yl)-piperidin-1-ylmethyl]-benzonitrile]	< 500
CC1(n2cnc3cnc4[nH]ccc4c32)CCN(Cc2cncs2)CC1 [Example 755, 1-(4-Methyl-1-thiazol-5-ylmethyl-piperidin-4-yl)-1,6-dihydro-1,3,5,6-tetraaza-as-indacene]	< 500

SMILES	Ki [nM]
CC1(n2cnc3cnc4[nH]ccc4c32)CCN(Cc2ccnc(C#N)c2)CC1 [Example 756, 4-[4-Methyl-4-(6H-1,3,5,6-tetraaza-as-indacen-1-yl)-piperidin-1-ylmethyl]-pyridine-2-carbonitrile]	< 500
CCS(=O)(=O)N1CCC(C)(n2cnc3cnc4[nH]ccc4c32)CC1 [Example 757, 1-(1-Ethanesulfonyl-4-methyl-piperidin-4-yl)-1,6-dihydro-1,3,5,6-tetraaza-as-indacene]	< 500
Cc1nc2cnc3[nH]ccc3c2n1C1(C)CCN(Cc2ccnc(C#N)c2)CC1 [Example 758, 4-[4-Methyl-4-(2-methyl-6H-1,3,5,6-tetraaza-as-indacen-1-yl)-piperidin-1-ylmethyl]-pyridine-2-carbonitrile]	< 500
CC(O)c1nc2cnc3[nH]ccc3c2n1C1CCN(CCC(F)(F)F)CC1 (stereo not drawn) [Example 759, 1-{1-[1-(3,3,3-Trifluoro-propyl)-piperidin-4-yl]-1,6-dihydro-1,3,5,6-tetraaza-as-indacen-2-yl}-ethanol]	< 500
OCc1nc2cnc3[nH]ccc3c2n1C1CCN(CCC(F)(F)F)CC1 [Example 760, {1-[1-(3,3,3-Trifluoro-propyl)-piperidin-4-yl]-1,6-dihydro-1,3,5,6-tetraaza-as-indacen-2-yl}-methanol]	< 500
OCc1nc2cnc3[nH]ccc3c2n1C1CCN(CC(F)(F)F)CC1 [Example 761, {1-[1-(2,2,2-Trifluoro-ethyl)-piperidin-4-yl]-1,6-dihydro-1,3,5,6-tetraaza-as-indacen-2-yl}-methanol]	< 500
Cc1nc2cnc3[nH]ccc3c2n1C1CCN(CC(F)F)CC1 [Example 762, 1-[1-(2,2-Difluoro-ethyl)-piperidin-4-yl]-2-methyl-1,6-dihydro-1,3,5,6-tetraaza-as-indacene]	< 500
COCCN(C)C(=O)NC1CCC(n2cnc3cnc4[nH]ccc4c32)CC1 (stereo not drawn) [Example 763, 1-(2-Methoxy-ethyl)-1-methyl-3-[4-(6H-1,3,5,6-tetraaza-as-indacen-1-yl)-cyclohexyl]-urea]	< 500
Cc1nc2cnc3[nH]ccc3c2n1C1CCN(C(=O)NCC(F)(F)F)CC1 [Example 764, 4-(2-Methyl-6H-1,3,5,6-tetraaza-as-indacen-1-yl)-piperidine-1-carboxylic acid (2,2,2-trifluoro-ethyl)-amide]	< 500
Cc1nc2cnc3[nH]ccc3c2n1C1CCN(C(=O)NCCC(F)(F)F)CC1 [Example 765, 4-(2-Methyl-6H-1,3,5,6-tetraaza-as-indacen-1-yl)-piperidine-1-carboxylic acid (3,3,3-trifluoro-propyl)-amide]	< 500
O=S1(=O)CCN(C2CCC(n3cnc4cnc5[nH]ccc5c43)CC2)CC1 (stereo not drawn) [Example 766, 1-[4-(1,1-Dioxo-thiomorpholin-4-yl)-cyclohexyl]-1,6-dihydro-1,3,5,6-tetraaza-as-indacene]	< 500
Cc1nc2cnc3[nH]ccc3c2n1C1CCC(N2CCC(F)(F)CC2)CC1 (stereo not drawn) [Example 767, 1-[4-(4,4-Difluoro-piperidin-1-yl)-cyclohexyl]-2-methyl-1,6-dihydro-1,3,5,6-tetraaza-as-indacene]	< 500
Cc1nc2cnc3[nH]ccc3c2n1C1CCC(N2CCC(C#N)CC2)CC1 (stereo not drawn) [Example 768, 1-[4-(2-Methyl-6H-1,3,5,6-tetraaza-as-indacen-1-yl)-cyclohexyl]-piperidine-4-carbonitrile]	< 500
CNC(=O)OC1CCC(n2cnc3cnc4[nH]ccc4c32)CC1 (stereo not drawn) [Example 769, Methyl-carbamic acid 4-(6H-1,3,5,6-tetraaza-as-indacen-1-yl)-cyclohexyl ester]	< 500
COCCNc1nc2cnc3[nH]ccc3c2n1C1CCN(CCC#N)CC1 [Example 770, 3-{4-[2-(2-Methoxy-ethylamino)-6H-1,3,5,6-tetraaza-as-indacen-1-yl]-piperidin-1-yl}-propionitrile]	< 500
CNc1nc2cnc3[nH]ccc3c2n1C1CCN(CCC#N)CC1 [Example 771, 3-[4-(2-Methylamino-6H-1,3,5,6 tetraaza-asindacen-1-yl)-piperidin-1-yl]-propionitrile]	< 500
CNc1nc2cnc3[nH]ccc3c2n1C1CCN(Cc2cccc(C#N)c2)CC1 [Example 772, 3-[4-(2-Methylamino-6H-1,3,56-tetraaza-as-indacen-1-yl)-piperidine-1-yl-methyl]-benzonitrile]	< 500
CNc1nc2cnc3[nH]ccc3c2n1C1CCCOC1 (stereo not drawn) [Example 773, Methyl-[1-(tetrahydro-pyran-3-yl)-1,6-dihydro-1,3,5,6-tetraaza-as-indacen-2-yl]-amine]	< 500
CNc1nc2cnc3[nH]ccc3c2n1C1CCN(S(C)(=O)=O)CC1 [Example 774, [1-(1-Methanesulfonyl-piperidin-4-yl) 1,6-dihydro-1,3,5,6-tetraaza-as-indacen-1-yl]-methyl-amine]	< 500
